US20060235215A1 (published 2006)

Assays:
Assay in all cases: yeast two-hybrid
[1] = target: T1, OsSGT1, bait fragment aa 200-368 (Oryza sativa, UniProt Q0JL44 200-367)
T1 construct: bait; also called PN20285
T1 sequence: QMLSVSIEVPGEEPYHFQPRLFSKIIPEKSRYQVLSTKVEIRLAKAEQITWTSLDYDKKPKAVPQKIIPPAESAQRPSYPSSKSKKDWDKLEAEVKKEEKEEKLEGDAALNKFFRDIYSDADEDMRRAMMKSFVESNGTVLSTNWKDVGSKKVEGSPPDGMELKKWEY
Procedure: (§1) Yeast carrying the target gene construct was combined with yeast carrying the activation domain library. The two yeast strains mated to form diploid yeast and were plated on media that selected for expression of one or more Ga14p-responsive reporter genes. Thus, both hybrid proteins (i.e., the target “bait” protein and the activation domain “prey” protein) were expressed in a yeast reporter strain where an interaction between the test proteins results in transcription of the reporter genes […]. Colonies that arose after incubation were selected for further characterization. The activation domain plasmid was isolated from each colony obtained in the two-hybrid search. The sequence of the insert in this construct was obtained by sequence analysis (e.g., Sanger's dideoxy nucleotide chain termination method; see Ausubel et al., 1988, including updates up to 2002). Thus, the identity of positives obtained from these searches was determined by sequence analysis against proprietary and public (e.g., GENBANK®) nucleic acid and protein databases.
The rice SGT1 protein shares 74 and 75% amino acid sequence similarity with two Arabidopsis thaliana SGT1 homologs and 45% amino acid sequence similarity with Saccharomyces cerevisiae SGT1. […]

[2] = target: T2, Ring zinc finger protein PN20115, bait fragment aa 5-140 (Oryza sativa)
T2 construct: bait
T2 chain: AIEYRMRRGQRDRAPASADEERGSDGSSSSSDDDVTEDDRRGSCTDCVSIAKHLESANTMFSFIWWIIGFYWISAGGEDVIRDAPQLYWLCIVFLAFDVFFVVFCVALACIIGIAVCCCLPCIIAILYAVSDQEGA

[3] = target: T3, O. sativa Cellulose Synthase Catalytic Subunit, RSW1-Like, bait fragment aa 316-583 (Oryza sativa, UniProt A2Y0X2 316-583)
T3 construct: bait; also called OsCS; PN19707
T3 sequence: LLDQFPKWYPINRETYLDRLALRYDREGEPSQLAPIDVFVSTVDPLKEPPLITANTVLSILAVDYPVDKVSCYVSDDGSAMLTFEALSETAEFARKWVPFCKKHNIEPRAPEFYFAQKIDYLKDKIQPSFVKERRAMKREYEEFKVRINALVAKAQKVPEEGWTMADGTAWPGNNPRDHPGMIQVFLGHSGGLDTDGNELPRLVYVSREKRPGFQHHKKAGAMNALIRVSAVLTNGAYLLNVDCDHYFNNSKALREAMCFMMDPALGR
Procedure: as §1
A second bait, namely O. sativa Cellulose Synthase Catalytic Subunit, RSW1-Like (OSCS; PN19707; GENBANK® Accession No. AF030052), was also used.

B1: L-aspartase-like protein-like PN24060, prey clone aa 176-315 (other)
chain: EKGMKEAENVVEAKSSQLESLVSHEGEKTPRPQAVAEGSSKVVPTPVEYTVNDIIDGKTVNAVEGLKVYEGLVNENEKNKILSLLNETKASFRRGGLEAGQTVIIGKRPMKGHGREIIQLGIPIVEGPPEDDYPRETKVE
notes: prey; AD fusion; output trait library
B1: binds [1].

B2: Proline rich protein PN23221, prey clone aa 84-302 (other)
chain: PEPEPKPEPKPEPKPEPKPEPKPYPEPKPEPKPEPKPEPEPKPEPKPEPKPEPKPYPEPKPEPKPEPKPEPKPEPKPKPEPKPHPEPKPDPKPEPKPHPEPEPKPEPKPEPKPHPEPEPKPEPKPEPKPEPKPEPKPEPKPKPKPEPKPKPEPKPYPEPKPKPEPKPEPKPEPKPEPKPEPKPEPKPEPKPEPKPKPEPKPHPKPEPKPEPKPEPKPEP
notes: as for B1
B2: binds [2].

B3: Novel Protein PN29118, Fragment, prey clone aa 1-136 (other)
chain: TSSGDQQMVTVAERFPREVSSEAVFRCVRLGPVDQAEAEVAYQTAVSIGGHVFKGILHDVGPEALAVAGGGGASEYHFRLTGDGSSPSTAAAGEAGSGGGGNIIVSSAVVMDPYPTPGPYGAFPAGTPFFHGHPRP
notes: prey; AD fusion; output trait library; also called OsPN29118
B3: binds [3].
